Laboratory results taken from patent US20230303711A1.
No constants are given. Whether binding was seen depends on the method and setting. Some binding calls cover weakened binding; strength is not graded here.

Target: macaque CD47-Fc (macaque)
Assay: ELISA on coated macaque CD47-Fc

binding: binds
B1: Antibody 17 (antibody, human IgG1, kappa, V domains shown)
VH: QVQLQESGPGLVKPSETLSLTCTVSGGSLDNYYWSWIRQPPGKGLEWIGYIYYSGNTNYNPSLKSRVTISVDTSKNQFSLRLRSVTAADTAVYYCARGGRFLERYWGQGTLVTVSS
VL: DIQMTQSPSSVSASVGDRVTISCRANQAIGTWLAWYQQKPGKAPKLLIYAASTLQSGVPSRFSGSGSGTEFTLTISSLQAEDVAVYYCQQYYTTPLTFGGGTKLEIKR
